# Experimental data taken from the supplement of paper PMC4604168 (melanoma cell lines).
# The other results are listed elsewhere or left out. Single values are uncertain, as repeats are few or missing.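 Cells were imaged in 1,536-well plates, and nuclei stained with an antibody against cleaved PARP were counted against all DNA-stained nuclei to give the apoptosis fraction. Screening doses were chosen to leave most cells alive, and resting and induced cleaved-PARP levels differ strongly between cell lines.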
# Legend:
# Assay in all cases: cleaved PARP positive nuclei fraction relative to DMSO control; melanoma cells; higher = more apoptosis
# Details in all cases: library dose: low library concentration; 72 h
# [1] = test system: WM115
# [2] = test system: WM1716
# [3] = test system: WM1745
# [4] = test system: WM3526
# [5] = test system: WM3619
# [6] = test system: WM451Lu
Structure (SMILES),cleaved PARP positive nuclei fraction [1] [%],cleaved PARP positive nuclei fraction [2] [%],cleaved PARP positive nuclei fraction [3] [%],cleaved PARP positive nuclei fraction [4] [%],cleaved PARP positive nuclei fraction [5] [%],cleaved PARP positive nuclei fraction [6] [%]
"Cn1cncc1[C@@](N)(c1ccc(Cl)cc1)c1ccc2c(c1)c(-c1cccc(Cl)c1)cc(=O)n2C [tipifarnib] + O=C(O)C(=O)Nc1sc2c(c1C(=O)O)CCNC2 [TCS401] (first compound 0.01 µM, partner dose 1.66667 µM)",92.7,83.2,84.5,62.9,76.6,40.7
"CC(=O)c1c(C)c2cnc(Nc3ccc(N4CCNCC4)cn3)nc2n(C2CCCC2)c1=O [palbociclib] + O=C(Nc1cccc(Cl)c1)Nc1ncc(CCNc2ncnc3ccsc23)s1 [SNS314] (first compound 0.04 µM, partner dose 0.0008 µM)",240,131,139,89,143,134
"Clc1ccc(Nc2nnc(Cc3ccncc3)c3ccccc23)cc1 [vatalanib] + O=c1cc(-c2cccc3c2Sc2ccccc2S3)oc(N2CCOCC2)c1 [KU55933] (first compound 2 µM, partner dose 1 µM)",196,107,116,75.2,94.2,141
"CC1(C)NC(=O)N(c2ccc([N+](=O)[O-])c(C(F)(F)F)c2)C1=O [nilutamide] + O=C(O)C(=O)Nc1sc2c(c1C(=O)O)CCNC2 [TCS401] (first compound 1 µM, partner dose 1.66667 µM)",88,85.9,123,150,83.1,93.1
"C=CCNC1=C2C[C@@H](C)C[C@H](OC)[C@H](O)[C@@H](C)/C=C(\C)[C@H](OC(N)=O)[C@@H](OC)/C=C\C=C(/C)C(=O)NC(=CC1=O)C2=O [Tanespimycin] + OCc1c[nH]c2ccccc12 [Indole-3-carbinol] (first compound 0.002 µM, partner dose 0.8 µM)",98.3,153,108,274,96.6,90.8
"C=CCNC1=C2C[C@@H](C)C[C@H](OC)[C@H](O)[C@@H](C)/C=C(\C)[C@H](OC(N)=O)[C@@H](OC)/C=C\C=C(/C)C(=O)NC(=CC1=O)C2=O [Tanespimycin] + O=C(Nc1ccccc1)c1cc([N+](=O)[O-])ccc1Cl [GW9662] (first compound 0.002 µM, partner dose 2 µM)",94.2,33.3,91.7,33.4,95.4,207
"Cn1cncc1[C@@](N)(c1ccc(Cl)cc1)c1ccc2c(c1)c(-c1cccc(Cl)c1)cc(=O)n2C [tipifarnib] + O=c1cc(-c2cccc3c2Sc2ccccc2S3)oc(N2CCOCC2)c1 [KU55933] (first compound 0.01 µM, partner dose 1 µM)",201,231,101,45.2,81.9,33.7
"NC(=O)Nc1cc(-c2cccc(F)c2)sc1C(=O)N[C@H]1CCCNC1 + COc1cc2ncnc(Nc3ccc(Oc4ccccc4)cc3)c2cc1OC [SrcI1] (first compound 0.02 µM, partner dose 2 µM)",107,134,151,80.9,171,32.3
"Cn1nnc2c(C(N)=O)ncn2c1=O [temozolomide] + CC(C)CCN1c2nc(Nc3cc(F)c(O)c(F)c3)ncc2N(C)C(=O)C1C [BID1870] (first compound 2 µM, partner dose 0.2 µM)",143,81.6,205,191,104,88.6
"COc1cc(Nc2ncc(F)c(Nc3ccc4c(n3)NC(=O)C(C)(C)O4)n2)cc(OC)c1OC [Tamatinib] + COc1ccc(-c2ccc3c(N4CCOCC4)nc(N4C[C@@H](C)O[C@@H](C)C4)nc3n2)cc1CO [KU0063794] (first compound 0.4 µM, partner dose 0.02 µM)",200,76.8,150,83.8,195,143
"Cn1cncc1[C@@](N)(c1ccc(Cl)cc1)c1ccc2c(c1)c(-c1cccc(Cl)c1)cc(=O)n2C [tipifarnib] + N#Cc1c(O)c2c(-c3ccc(-c4ccccc4O)cc3)csc2[nH]c1=O [A769662] (first compound 0.01 µM, partner dose 2 µM)",74.8,188,114,61.6,108,140
"CC1(C)NC(=O)N(c2ccc([N+](=O)[O-])c(C(F)(F)F)c2)C1=O [nilutamide] + OCCn1cc(-c2cnc3nnn(Cc4ccc5ncccc5c4)c3n2)cn1 [PF04217903] (first compound 1 µM, partner dose 1 µM)",105,112,105,65,88.1,52.9
"Clc1ccc(Nc2nnc(Cc3ccncc3)c3ccccc23)cc1 [vatalanib] + Oc1cc(-c2nc(-c3ccccc3)[nH]c2-c2ccncc2)ccc1Cl [L779450] (first compound 2 µM, partner dose 0.2 µM)",87.8,69.1,125,105,77.7,81
"CC(=O)c1c(C)c2cnc(Nc3ccc(N4CCNCC4)cn3)nc2n(C2CCCC2)c1=O [palbociclib] + COc1cc(Nc2ncc(F)c(Nc3ccc4c(n3)NC(=O)C(C)(C)O4)n2)cc(OC)c1OC [Tamatinib] (first compound 0.04 µM, partner dose 0.4 µM)",236,103,175,58.5,123,133
"COCC[n+]1c2c(n(Cc3cnccn3)c1C)C(=O)c1ccccc1C2=O + CC(C)(C)c1cnc(CSc2cnc(NC(=O)C3CCNCC3)s2)o1 [SNS-032] (first compound 0.0004 µM, partner dose 0.01 µM)",129,227,101,60.1,101,73.8
"O=C(CCCCCCC(=O)Nc1ccccc1)NO [vorinostat] + Cn1cc(/C=C2\C(=O)Nc3cccnc32)c2ccccc21 [GW441756] (first compound 0.08 µM, partner dose 0.4 µM)",43.3,63.7,95.7,69.2,89.4,59.4
"Clc1ccc(Nc2nnc(Cc3ccncc3)c3ccccc23)cc1 [vatalanib] + CC1(C)NC(=O)N(c2ccc([N+](=O)[O-])c(C(F)(F)F)c2)C1=O [nilutamide] (first compound 2 µM, partner dose 1 µM)",203,58.1,109,146,97.1,65
"OCCn1cc(-c2cnc3nnn(Cc4ccc5ncccc5c4)c3n2)cn1 + Oc1cc(-c2nc(-c3ccccc3)[nH]c2-c2ccncc2)ccc1Cl [L779450] (first compound 1 µM, partner dose 0.2 µM)",46.9,82,106,76.1,118,224
"Cn1nnc2c(C(N)=O)ncn2c1=O [temozolomide] + Cc1cc([N+](=O)[O-])ccc1NS(=O)(=O)c1cc(Cl)ccc1Cl [FH535] (first compound 2 µM, partner dose 1 µM)",79.7,92.7,112,184,74.9,302
"O=C(Nc1cccc(Cl)c1)Nc1ncc(CCNc2ncnc3ccsc23)s1 + COc1cc2ncnc(Nc3ccc(Oc4ccccc4)cc3)c2cc1OC [SrcI1] (first compound 0.0008 µM, partner dose 2 µM)",32.7,77.6,124,126,59.7,58.3
"CC(=O)c1c(C)c2cnc(Nc3ccc(N4CCNCC4)cn3)nc2n(C2CCCC2)c1=O [palbociclib] + NC(=O)Nc1cc(-c2cccc(F)c2)sc1C(=O)N[C@H]1CCCNC1 [AZD7762] (first compound 0.04 µM, partner dose 0.02 µM)",277,418,118,124,139,113
"Cn1c(Nc2ccc(C(F)(F)F)cc2)nc2cc(Oc3ccnc(-c4ncc(C(F)(F)F)[nH]4)c3)ccc21 + C=CCn1c(=O)c2cnc(Nc3ccc(N4CCN(C)CC4)cc3)nc2n1-c1cccc(C(C)(C)O)n1 [MK1775] (first compound 0.08 µM, partner dose 0.02 µM)",2100,194,159,142,135,65.8
"CC(=O)c1c(C)c2cnc(Nc3ccc(N4CCNCC4)cn3)nc2n(C2CCCC2)c1=O [palbociclib] + c1cc(-c2cnn3cc(-c4ccc(OCCN5CCCCC5)cc4)cnc23)ccn1 [Dorsomorphin] (first compound 0.04 µM, partner dose 0.4 µM)",138,65.9,113,116,103,113
"C[C@]1(c2nc3c(C(N)=O)cccc3[nH]2)CCCN1 [Veliparib] + Cn1nnc2c(C(N)=O)ncn2c1=O [temozolomide] (first compound 1.4 µM, partner dose 2 µM)",73.4,172,105,47.3,92.3,238
"COCC[n+]1c2c(n(Cc3cnccn3)c1C)C(=O)c1ccccc1C2=O + Cc1cc([N+](=O)[O-])ccc1NS(=O)(=O)c1cc(Cl)ccc1Cl [FH535] (first compound 0.0004 µM, partner dose 1 µM)",133,80.7,105,76,85.1,69.4
"CC(C)(C)c1cnc(CSc2cnc(NC(=O)C3CCNCC3)s2)o1 + Cc1cc([N+](=O)[O-])ccc1NS(=O)(=O)c1cc(Cl)ccc1Cl [FH535] (first compound 0.01 µM, partner dose 1 µM)",158,29.8,104,87.7,87.4,61.7

# Part of the list above, bar-delimited:
Structure (SMILES) | cleaved PARP positive nuclei fraction [1] [%] | cleaved PARP positive nuclei fraction [2] [%] | cleaved PARP positive nuclei fraction [3] [%] | cleaved PARP positive nuclei fraction [4] [%] | cleaved PARP positive nuclei fraction [5] [%] | cleaved PARP positive nuclei fraction [6] [%]
C=CCNC1=C2C[C@@H](C)C[C@H](OC)[C@H](O)[C@@H](C)/C=C(\C)[C@H](OC(N)=O)[C@@H](OC)/C=C\C=C(/C)C(=O)NC(=CC1=O)C2=O [Tanespimycin] + OCc1c[nH]c2ccccc12 [Indole-3-carbinol] (first compound 0.002 µM, partner dose 0.8 µM) | 98.3 | 153 | 108 | 274 | 96.6 | 90.8
C=CCNC1=C2C[C@@H](C)C[C@H](OC)[C@H](O)[C@@H](C)/C=C(\C)[C@H](OC(N)=O)[C@@H](OC)/C=C\C=C(/C)C(=O)NC(=CC1=O)C2=O [Tanespimycin] + O=C(Nc1ccccc1)c1cc([N+](=O)[O-])ccc1Cl [GW9662] (first compound 0.002 µM, partner dose 2 µM) | 94.2 | 33.3 | 91.7 | 33.4 | 95.4 | 207
